Values from PubChem BioAssay AID1224827 (NIAID, 2016).
The deposit covers about 3,800 reagents; this is an unselected part. Over the whole deposit, about 2,200 (57%) were called active. 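Active means a strong reporter change in either direction; calls are per siRNA, not per gene; qiagen siRNAs gave weaker effects.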 Unmarked entries are inactive. Reagents against one gene are numbered here. Further read-outs or replicates are left out here.

Aim: 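Confirm genes whose knock-down changes LPS-driven TNF promoter activity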 (follow-up of hits)
Cell system: RAW264.7 G9 mouse macrophage reporter clone
Reagents: single siRNA against mouse genes, 100 nM siRNA
Timing: siRNA for 2 days, then LPS about 16 h
Treatment: bacterial lipopolysaccharide (LPS), 10 ng/ml, cells fixed after overnight (about 16 h) stimulation
Measured: 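Imaged nuclear TNF reporter intensity, background removed, scaled per plate and to non-targeting control wells, as z-scores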
Reading the numbers: TNF reporter z-score, mean: higher = stronger Tnf promoter reporter signal
Rule for the call: 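Active siRNA: replicate-mean z-score of 2 or more, or -2 or less; no calls for control wells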

For Rbmx (RNA binding motif protein, X chromosome) #1, the values are TNF reporter z-score, mean -1.79.
With knock-down of Rbmx (RNA binding motif protein, X chromosome) #2, the screen gave TNF reporter z-score, mean -3.18 (active).
Against Rbmx (RNA binding motif protein, X chromosome) #3, the entry reads TNF reporter z-score, mean -3.97 (active).
With knock-down of Sfpq #1, the screen gave TNF reporter z-score, mean 5.37 (active).
Depletion of Sfpq #2 gave: TNF reporter z-score, mean -2.78 (active).
Sfpq #3 gave TNF reporter z-score, mean -4.37 (active).
Against Sfpq #4, the entry reads TNF reporter z-score, mean 0.484.
With knock-down of Sfpq #5, the screen gave TNF reporter z-score, mean -1.
Knock-down of Sfpq #6 gave: TNF reporter z-score, mean -1.94.
Fam168b (family with sequence similarity 168, member B) #1 scored TNF reporter z-score, mean -4.26 (active).
After knock-down of Fam168b (family with sequence similarity 168, member B) #2, the record shows TNF reporter z-score, mean -4.64 (active).
Against Fam168b (family with sequence similarity 168, member B) #3, the entry reads TNF reporter z-score, mean -6.37 (active).
With knock-down of Bok (BCL2-related ovarian killer) #1 the results were TNF reporter z-score, mean -4.14 (active).
After knock-down of Bok (BCL2-related ovarian killer) #2 the results were TNF reporter z-score, mean -4.27 (active).
Bok (BCL2-related ovarian killer) #3 showed TNF reporter z-score, mean -5.76 (active).
Depletion of Thrap3 (thyroid hormone receptor associated protein 3) #1 came out at: TNF reporter z-score, mean -2.11 (active).
Thrap3 (thyroid hormone receptor associated protein 3) #2 gave TNF reporter z-score, mean -2.96 (active).
Thrap3 (thyroid hormone receptor associated protein 3) #3 showed TNF reporter z-score, mean -3.37 (active).
Thrap3 (thyroid hormone receptor associated protein 3) #4 gave TNF reporter z-score, mean 3.51 (active).
With knock-down of Thrap3 (thyroid hormone receptor associated protein 3) #5 the results were TNF reporter z-score, mean 2.3 (active).
With knock-down of Thrap3 (thyroid hormone receptor associated protein 3) #6, the screen gave TNF reporter z-score, mean -1.42.
Depletion of Or1j4 (olfactory receptor family 1 subfamily J member 4) #1 resulted in: TNF reporter z-score, mean 7.86 (active).
For Or1j4 (olfactory receptor family 1 subfamily J member 4) #2, the entry reads TNF reporter z-score, mean -3.23 (active).
After knock-down of Or1j4 (olfactory receptor family 1 subfamily J member 4) #3, the record shows TNF reporter z-score, mean -4.6 (active).
Silencing of Or1j4 (olfactory receptor family 1 subfamily J member 4) #4 resulted in: TNF reporter z-score, mean -0.37.
Or1j4 (olfactory receptor family 1 subfamily J member 4) #5 scored TNF reporter z-score, mean -1.22.
After knock-down of Or1j4 (olfactory receptor family 1 subfamily J member 4) #6, the screen gave TNF reporter z-score, mean -2.52 (active).
Against Trim9 (tripartite motif-containing 9) #1 the deposit lists TNF reporter z-score, mean 6.84 (active).
Depletion of Trim9 (tripartite motif-containing 9) #2 gave: TNF reporter z-score, mean -3.25 (active).
For Trim9 (tripartite motif-containing 9) #3 the deposit lists TNF reporter z-score, mean -5.6 (active).
After knock-down of Trim9 (tripartite motif-containing 9) #4 the results were TNF reporter z-score, mean 1.45.
After knock-down of Trim9 (tripartite motif-containing 9) #5, the screen gave TNF reporter z-score, mean -1.51.
Knock-down of Trim9 (tripartite motif-containing 9) #6 resulted in: TNF reporter z-score, mean -2.8 (active).
